Results are given in words; binding and its absence hold for the method and conditions named. Binding can be weak; no strength is given. Tags and fused reporters may be left off the sequences shown. Each block holds one binder with its values, some of them ahead of it.
How the values were obtained:
[1] = target: AG-C (C-terminus of AG) (Arabidopsis); assay: two-hybrid; bait in pDEST32 (DBD), prey in pDEST22 (AD), S. cerevisiae AH109; growth on SD-Leu-Trp-His with 2.5 mM 3-amino-1,2,4-triazole, 10-, 100- and 1,000-fold dilutions
[2] = target: SEP3-C (C-terminus of SEP3) (Arabidopsis); assay: as above

binding [1]: binds
binding [2]: binds
B1: TCP4 (yeast two-hybrid prey, activation domain fusion) (protein, UniProt Q8LPR5 1-420)
chain: MSDDQFHHPPPPSSMRHRSTSDAADGGCGEIVEVQGGHIVRSTGRKDRHSKVCTAKGPRDRRVRLSAHTAIQFYDVQDRLGFDRPSKAVDWLIKKAKTSIDELAELPPWNPADAIRLAAANAKPRRTTAKTQISPSPPPPQQQQQQQQLQFGVGFNGGGAEHPSNNESSFLPPSMDSDSIADTIKSFFPVIGSSTEAPSNHNLMHNYHHQHPPDLLSRTNSQNQDLRLSLQSFPDGPPSLLHHQHHHHTSASASEPTLFYGQSNPLGFDTSSWEQQSSEFGRIQRLVAWNSGGGGGATDTGNGGGFLFAPPTPSTTSFQPVLGQSQQLYSQRGPLQSSYSPMIRAWFDPHHHHQSISTDDLNHHHHLPPPVHQSAIPGIGFASGEFSSGFRIPARFQGQEEEQHDGLTHKPSSASSISRH

binding [1]: binds
binding [2]: binds
B2: TCP18 (yeast two-hybrid prey, activation domain fusion) (protein, UniProt A1YKT1 1-433)
chain: MNNNIFSTTTTINDDYMLFPYNDHYSSQPLLPFSPSSSINDILIHSTSNTSNNHLDHHHQFQQPSPFSHFEFAPDCALLTSFHPENNGHDDNQTIPNDNHHPSLHFPLNNTIVEQPTEPSETINLIEDSQRISTSQDPKMKKAKKPSRTDRHSKIKTAKGTRDRRMRLSLDVAKELFGLQDMLGFDKASKTVEWLLTQAKPEIIKIATTLSHHGCFSSGDESHIRPVLGSMDTSSDLCELASMWTVDDRGSNTNTTETRGNKVDGRSMRGKRKRPEPRTPILKKLSKEERAKARERAKGRTMEKMMMKMKGRSQLVKVVEEDAHDHGEIIKNNNRSQVNRSSFEMTHCEDKIEELCKNDRFAVCNEFIMNKKDHISNESYDLVNYKPNSSFPVINHHRSQGAANSIEQHQFTDLHYSFGAKPRDLMHNYQNMY
